The values below come from PMC8463586.

These are yes or no findings as the source states them, for the method shown. In cells and extracts the contact can be indirect. Some entries that bind do so weakly or less than the wild type. Where a sequence is shown, tags or fusion partners need not be part of it.

Assay [1] deals with T1, Flag-Diap1 (Drosophila IAP-1) (Drosophila) (UniProt Q24306).
T1 sequence: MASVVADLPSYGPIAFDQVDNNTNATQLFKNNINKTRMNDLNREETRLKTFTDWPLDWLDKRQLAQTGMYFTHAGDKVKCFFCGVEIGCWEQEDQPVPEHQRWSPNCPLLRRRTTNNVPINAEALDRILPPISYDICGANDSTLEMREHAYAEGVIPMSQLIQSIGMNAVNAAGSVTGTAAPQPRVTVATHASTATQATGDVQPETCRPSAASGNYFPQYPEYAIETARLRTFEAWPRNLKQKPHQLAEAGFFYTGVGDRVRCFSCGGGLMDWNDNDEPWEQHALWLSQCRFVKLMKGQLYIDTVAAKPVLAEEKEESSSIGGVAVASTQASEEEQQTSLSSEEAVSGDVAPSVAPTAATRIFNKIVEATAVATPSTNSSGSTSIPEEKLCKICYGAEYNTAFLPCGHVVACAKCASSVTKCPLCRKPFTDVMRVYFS
As to the kind of experiment: co-IP; 293T cells transfected with the tagged constructs, harvested two days later; IP with mouse anti-Flag or mouse anti-Myc, immunoblot. A general note: In western blotting, separated proteins are transferred to a membrane and probed.

Assay [2] addresses T1, Flag-Diap1 (Drosophila IAP-1) (Drosophila). As to the kind of experiment: co-IP; 293T cells transfected with Diap1 and Dronc, with or without co-expressed Rdx; IP and immunoblot.
The target in assay [3] is T2, Myc-Dronc (Drosophila Nedd2-like caspase) (Drosophila) (UniProt Q9XYF4).
T2 sequence: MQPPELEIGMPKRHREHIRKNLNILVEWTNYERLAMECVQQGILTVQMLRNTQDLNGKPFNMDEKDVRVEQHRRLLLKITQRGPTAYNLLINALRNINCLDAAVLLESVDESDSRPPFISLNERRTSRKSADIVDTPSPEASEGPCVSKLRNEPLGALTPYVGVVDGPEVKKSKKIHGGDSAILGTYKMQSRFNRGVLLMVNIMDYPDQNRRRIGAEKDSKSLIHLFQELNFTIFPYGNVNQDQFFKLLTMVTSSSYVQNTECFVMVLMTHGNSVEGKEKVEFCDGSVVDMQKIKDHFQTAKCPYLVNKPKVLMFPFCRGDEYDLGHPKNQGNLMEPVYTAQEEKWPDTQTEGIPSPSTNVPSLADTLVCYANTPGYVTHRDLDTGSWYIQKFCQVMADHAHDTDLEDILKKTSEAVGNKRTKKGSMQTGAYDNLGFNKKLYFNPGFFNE
Briefly: co-IP; 293T cells transfected with the tagged constructs, harvested two days later; IP with mouse anti-Flag or mouse anti-Myc, immunoblot.

B1: Myc-Dronc (Drosophila Nedd2-like caspase) (protein, UniProt Q9XYF4 1-450)
chain: T2 sequence
B1: the binding result in assay [1] and in assay [2] was “binds” in each case.

B2: Flag-Diap1 (Drosophila IAP-1) (protein, UniProt Q24306 1-438)
chain: T1 sequence
Regarding B2, the binding entry in assay [3] is listed as “binds”.
